Laboratory results reported in the supplement of paper PMC7661543.
± gives the standard deviation of the averaged measurements. Differences between knockout arms are mostly noise.

Tested on: HCC-38
Assay: relative cell number vs DMSO control (72 h) (% of DMSO); higher = less growth inhibition (more cells)
Protocol: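 QMAP-Seq: a pool of 5 breast cancer cell lines (ZR-75-1, SKBR3, HCC-38, MDA-MB-231, BT-20), each carrying 12 doxycycline-inducible Cas9 sgRNA perturbations (11 knockouts plus non-targeting sgNT), was treated with compounds for 72 h at four 10-fold doses (10 nM-10 uM or 1 nM-1 uM range). Barcodes were amplified and sequenced, and cell number was interpolated from 293T spike-in standard curves. The result is expressed as % of the median of DMSO wells. Two biological replicates.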

C[C@]1(c2nc3c(C(N)=O)cccc3[nH]2)CCCN1 [Veliparib]
Conditions | relative cell number
sgRNA knockout: sgATF3, 10 nM | 113 ± 25
sgRNA knockout: sgATF3, 100 nM | 117 ± 2.2
sgRNA knockout: sgATF3, 1000 nM | 115 ± 8
sgRNA knockout: sgATF3, 10000 nM | 85.9 ± 7
sgRNA knockout: sgATF4, 10 nM | 108 ± 6.3
sgRNA knockout: sgATF4, 100 nM | 113 ± 11
sgRNA knockout: sgATF4, 1000 nM | 105 ± 7.4
sgRNA knockout: sgATF4, 10000 nM | 91.5 ± 9.6
sgRNA knockout: sgATF6, 10 nM | 118 ± 24
sgRNA knockout: sgATF6, 100 nM | 126 ± 13
sgRNA knockout: sgATF6, 1000 nM | 122 ± 39
sgRNA knockout: sgATF6, 10000 nM | 88.8 ± 3.7
sgRNA knockout: sgATG7, 10 nM | 103 ± 12
sgRNA knockout: sgATG7, 100 nM | 109 ± 2
sgRNA knockout: sgATG7, 1000 nM | 101 ± 14
sgRNA knockout: sgATG7, 10000 nM | 91.7 ± 6.8
sgRNA knockout: sgERN1, 10 nM | 104 ± 14
sgRNA knockout: sgERN1, 100 nM | 113 ± 5.9
sgRNA knockout: sgERN1, 1000 nM | 102 ± 23
sgRNA knockout: sgERN1, 10000 nM | 93.53 ± 0.76
sgRNA knockout: sgHSF1, 10 nM | 122 ± 41
sgRNA knockout: sgHSF1, 100 nM | 140 ± 23
sgRNA knockout: sgHSF1, 1000 nM | 135 ± 26
sgRNA knockout: sgHSF1, 10000 nM | 98.3 ± 11
sgRNA knockout: sgHSF2, 10 nM | 125 ± 31
sgRNA knockout: sgHSF2, 100 nM | 128 ± 15
sgRNA knockout: sgHSF2, 1000 nM | 111 ± 6.4
sgRNA knockout: sgHSF2, 10000 nM | 88.4 ± 11
sgRNA knockout: sgKEAP1, 10 nM | 125 ± 54
sgRNA knockout: sgKEAP1, 100 nM | 153 ± 30
sgRNA knockout: sgKEAP1, 1000 nM | 126 ± 41
sgRNA knockout: sgKEAP1, 10000 nM | 82.7 ± 8.8
sgRNA knockout: sgNFE2L2, 10 nM | 99.89 ± 0.21
sgRNA knockout: sgNFE2L2, 100 nM | 103 ± 4.3
sgRNA knockout: sgNFE2L2, 1000 nM | 98.8 ± 3.7
sgRNA knockout: sgNFE2L2, 10000 nM | 89.8 ± 9.1
sgRNA knockout: sgSLC35F2, 10 nM | 107 ± 19
sgRNA knockout: sgSLC35F2, 100 nM | 118 ± 3.7
sgRNA knockout: sgSLC35F2, 1000 nM | 102 ± 6.6
sgRNA knockout: sgSLC35F2, 10000 nM | 88 ± 1.4
sgRNA knockout: sgXBP1, 10 nM | 110 ± 6
sgRNA knockout: sgXBP1, 100 nM | 114 ± 1.5
sgRNA knockout: sgXBP1, 1000 nM | 107 ± 14
sgRNA knockout: sgXBP1, 10000 nM | 93.6 ± 6.7

COc1cccc2c1C(=O)c1c(O)c3c(c(O)c1C2=O)C[C@@](O)(C(=O)CO)C[C@@H]3O[C@H]1C[C@H](N)[C@H](O)[C@H](C)O1 [Doxorubicin]
Conditions | relative cell number
sgRNA knockout: sgATF3, 10 nM | 85.6 ± 4.7
sgRNA knockout: sgATF3, 100 nM | 38.4 ± 2
sgRNA knockout: sgATF3, 1000 nM | 19 ± 4.3
sgRNA knockout: sgATF3, 10000 nM | 13 ± 4.6
sgRNA knockout: sgATF4, 10 nM | 80.9 ± 16
sgRNA knockout: sgATF4, 100 nM | 40.1 ± 0.49
sgRNA knockout: sgATF4, 1000 nM | 21.8 ± 0.68
sgRNA knockout: sgATF4, 10000 nM | 12.3 ± 0.33
sgRNA knockout: sgATF6, 10 nM | 81.1 ± 0.43
sgRNA knockout: sgATF6, 100 nM | 46.7 ± 0.97
sgRNA knockout: sgATF6, 1000 nM | 20.9 ± 3.1
sgRNA knockout: sgATF6, 10000 nM | 16.4 ± 9.7
sgRNA knockout: sgATG7, 10 nM | 76.7 ± 6.7
sgRNA knockout: sgATG7, 100 nM | 36 ± 2.1
sgRNA knockout: sgATG7, 1000 nM | 18.01 ± 0.17
sgRNA knockout: sgATG7, 10000 nM | 8.76 ± 1.8
sgRNA knockout: sgERN1, 10 nM | 81.1 ± 5.5
sgRNA knockout: sgERN1, 100 nM | 39.7 ± 5.5
sgRNA knockout: sgERN1, 1000 nM | 22.4 ± 2.5
sgRNA knockout: sgERN1, 10000 nM | 14.1 ± 1.4
sgRNA knockout: sgHSF1, 10 nM | 71.7 ± 26
sgRNA knockout: sgHSF1, 100 nM | 44.1 ± 4.5
sgRNA knockout: sgHSF1, 1000 nM | 15.6 ± 1.4
sgRNA knockout: sgHSF1, 10000 nM | 11 ± 6.5
sgRNA knockout: sgHSF2, 10 nM | 81.6 ± 13
sgRNA knockout: sgHSF2, 100 nM | 40.93 ± 0.28
sgRNA knockout: sgHSF2, 1000 nM | 19.8 ± 3.6
sgRNA knockout: sgHSF2, 10000 nM | 12.7 ± 1.3
sgRNA knockout: sgKEAP1, 10 nM | 94 ± 24
sgRNA knockout: sgKEAP1, 100 nM | 40.3 ± 3.2
sgRNA knockout: sgKEAP1, 1000 nM | 22.9 ± 5.4
sgRNA knockout: sgKEAP1, 10000 nM | 13.8 ± 5.4
sgRNA knockout: sgNFE2L2, 10 nM | 76.3 ± 6.8
sgRNA knockout: sgNFE2L2, 100 nM | 38.4 ± 4.8
sgRNA knockout: sgNFE2L2, 1000 nM | 22.9 ± 4.5
sgRNA knockout: sgNFE2L2, 10000 nM | 11.1 ± 2.9
sgRNA knockout: sgSLC35F2, 10 nM | 80.53 ± 0.4
sgRNA knockout: sgSLC35F2, 100 nM | 34.3 ± 3.3
sgRNA knockout: sgSLC35F2, 1000 nM | 27 ± 2.4
sgRNA knockout: sgSLC35F2, 10000 nM | 11.6 ± 1.6
sgRNA knockout: sgXBP1, 10 nM | 82.1 ± 10
sgRNA knockout: sgXBP1, 100 nM | 38.3 ± 0.72
sgRNA knockout: sgXBP1, 1000 nM | 21 ± 3.1
sgRNA knockout: sgXBP1, 10000 nM | 10 ± 4.1
